Reference: PMC3136934
No constants are given. Whether binding was seen depends on the method and setting. Binding seen in cells or lysates may run through a third protein. Some binding calls cover weakened binding; strength is not graded here.

Sequences of proteins named here, by UniProt entry; tags and fusion partners are left off.
UniProt P40763: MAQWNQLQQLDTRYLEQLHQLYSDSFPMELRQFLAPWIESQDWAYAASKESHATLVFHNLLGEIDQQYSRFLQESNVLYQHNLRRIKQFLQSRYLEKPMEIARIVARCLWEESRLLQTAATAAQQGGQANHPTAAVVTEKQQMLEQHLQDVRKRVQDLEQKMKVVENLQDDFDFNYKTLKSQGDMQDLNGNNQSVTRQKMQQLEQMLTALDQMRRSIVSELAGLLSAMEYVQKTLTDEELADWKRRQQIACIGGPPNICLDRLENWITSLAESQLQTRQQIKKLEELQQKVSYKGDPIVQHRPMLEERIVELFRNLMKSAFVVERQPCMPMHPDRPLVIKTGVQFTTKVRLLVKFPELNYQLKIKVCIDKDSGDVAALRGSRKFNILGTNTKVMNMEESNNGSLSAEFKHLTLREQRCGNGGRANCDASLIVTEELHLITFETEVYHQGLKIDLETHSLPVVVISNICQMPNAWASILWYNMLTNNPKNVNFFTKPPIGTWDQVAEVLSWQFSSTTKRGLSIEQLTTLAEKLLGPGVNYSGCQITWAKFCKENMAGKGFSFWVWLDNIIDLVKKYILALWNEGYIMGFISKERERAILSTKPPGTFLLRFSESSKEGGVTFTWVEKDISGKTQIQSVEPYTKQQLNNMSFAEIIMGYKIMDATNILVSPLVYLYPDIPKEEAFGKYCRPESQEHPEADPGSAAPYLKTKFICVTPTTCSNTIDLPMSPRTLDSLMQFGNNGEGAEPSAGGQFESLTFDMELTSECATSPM
UniProt Q09472: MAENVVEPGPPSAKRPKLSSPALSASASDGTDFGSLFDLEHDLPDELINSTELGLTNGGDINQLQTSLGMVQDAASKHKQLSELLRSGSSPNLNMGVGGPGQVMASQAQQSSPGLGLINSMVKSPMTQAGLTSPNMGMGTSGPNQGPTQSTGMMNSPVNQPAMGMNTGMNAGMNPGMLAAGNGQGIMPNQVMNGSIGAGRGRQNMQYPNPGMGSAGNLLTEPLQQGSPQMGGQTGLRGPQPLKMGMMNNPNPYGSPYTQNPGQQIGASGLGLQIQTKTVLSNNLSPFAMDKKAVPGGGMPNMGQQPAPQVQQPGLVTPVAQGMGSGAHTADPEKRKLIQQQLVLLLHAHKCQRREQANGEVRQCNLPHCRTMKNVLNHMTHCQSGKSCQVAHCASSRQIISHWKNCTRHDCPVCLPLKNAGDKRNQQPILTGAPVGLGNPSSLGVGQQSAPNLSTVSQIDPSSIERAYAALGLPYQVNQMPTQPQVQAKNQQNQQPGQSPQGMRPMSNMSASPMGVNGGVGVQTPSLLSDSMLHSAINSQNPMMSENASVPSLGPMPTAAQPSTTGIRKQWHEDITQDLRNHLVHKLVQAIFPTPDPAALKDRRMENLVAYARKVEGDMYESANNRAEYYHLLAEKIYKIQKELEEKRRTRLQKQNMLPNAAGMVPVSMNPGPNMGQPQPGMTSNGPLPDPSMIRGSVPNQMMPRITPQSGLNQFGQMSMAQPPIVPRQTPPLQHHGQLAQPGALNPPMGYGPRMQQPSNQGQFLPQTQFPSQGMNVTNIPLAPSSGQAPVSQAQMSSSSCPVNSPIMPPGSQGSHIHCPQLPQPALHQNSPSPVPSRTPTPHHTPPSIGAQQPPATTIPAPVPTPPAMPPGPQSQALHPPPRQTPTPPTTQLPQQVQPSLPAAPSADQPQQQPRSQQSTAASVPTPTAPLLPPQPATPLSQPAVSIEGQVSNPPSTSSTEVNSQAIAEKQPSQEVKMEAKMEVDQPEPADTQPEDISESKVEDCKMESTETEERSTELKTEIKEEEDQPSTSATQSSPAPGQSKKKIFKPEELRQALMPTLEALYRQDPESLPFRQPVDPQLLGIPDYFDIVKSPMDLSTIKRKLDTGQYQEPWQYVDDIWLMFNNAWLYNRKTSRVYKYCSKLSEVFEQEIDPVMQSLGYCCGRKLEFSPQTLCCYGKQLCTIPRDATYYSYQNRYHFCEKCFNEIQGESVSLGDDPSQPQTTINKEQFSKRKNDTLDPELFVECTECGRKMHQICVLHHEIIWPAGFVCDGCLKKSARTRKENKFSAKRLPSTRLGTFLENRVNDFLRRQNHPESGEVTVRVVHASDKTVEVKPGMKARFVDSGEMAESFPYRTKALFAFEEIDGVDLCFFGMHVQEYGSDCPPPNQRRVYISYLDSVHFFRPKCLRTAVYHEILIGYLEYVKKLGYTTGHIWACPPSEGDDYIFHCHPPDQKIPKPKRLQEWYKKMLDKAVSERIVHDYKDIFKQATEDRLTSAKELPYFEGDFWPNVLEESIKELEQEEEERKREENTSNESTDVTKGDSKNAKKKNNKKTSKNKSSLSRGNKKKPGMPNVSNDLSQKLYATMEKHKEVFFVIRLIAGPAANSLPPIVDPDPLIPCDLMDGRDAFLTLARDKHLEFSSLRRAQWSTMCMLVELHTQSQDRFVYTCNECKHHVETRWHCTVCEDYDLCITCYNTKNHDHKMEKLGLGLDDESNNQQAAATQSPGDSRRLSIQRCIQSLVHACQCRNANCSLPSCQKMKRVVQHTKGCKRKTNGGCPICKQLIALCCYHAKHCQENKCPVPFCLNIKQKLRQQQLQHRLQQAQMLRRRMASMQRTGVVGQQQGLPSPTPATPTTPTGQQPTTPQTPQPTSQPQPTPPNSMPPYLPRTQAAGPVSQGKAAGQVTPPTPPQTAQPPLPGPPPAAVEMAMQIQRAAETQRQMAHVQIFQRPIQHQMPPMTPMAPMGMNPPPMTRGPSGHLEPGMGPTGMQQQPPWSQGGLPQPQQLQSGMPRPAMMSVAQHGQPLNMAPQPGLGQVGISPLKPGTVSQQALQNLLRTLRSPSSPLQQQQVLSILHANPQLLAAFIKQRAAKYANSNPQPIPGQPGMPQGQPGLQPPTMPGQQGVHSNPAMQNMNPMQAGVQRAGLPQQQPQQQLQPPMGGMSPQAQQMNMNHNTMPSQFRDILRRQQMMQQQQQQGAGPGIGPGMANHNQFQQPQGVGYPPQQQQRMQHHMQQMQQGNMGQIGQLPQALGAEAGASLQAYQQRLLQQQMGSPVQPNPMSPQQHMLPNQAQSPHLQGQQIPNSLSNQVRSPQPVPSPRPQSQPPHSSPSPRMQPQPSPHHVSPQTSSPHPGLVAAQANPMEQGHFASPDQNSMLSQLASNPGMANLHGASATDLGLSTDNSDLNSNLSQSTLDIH

What was measured:
[1] = target: STAT3 (human (endogenous in NTera-2)) (UniProt P40763); assay: condition: only undifferentiated NTera-2 cells (not induced to differentiate); co-IP; lysates of undifferentiated NTera-2 cells in NP40 lysis buffer (10 mM Tris pH 7.5, 150 mM NaCl, 0.5% NP40, 5 mM EDTA); precipitated with anti-STAT3, blotted with anti-p300
[2] = target: STAT3 (human (endogenous in NTera-2)) (UniProt P40763); assay: co-IP; lysates of NTera-2 cells 21 days after differentiation (Oct-4 RNAi lentivirus) in NP40 lysis buffer (10 mM Tris pH 7.5, 150 mM NaCl, 0.5% NP40, 5 mM EDTA); precipitated with anti-STAT3, blotted with anti-p300

p300 (from UniProt Q09472 1-2414)
binding [1]: no binding | binding [2]: binds
